Reference: ChEMBL document CHEMBL4316593 (Eur J Med Chem, 2019)
This continues a long series; more values of the same kind are listed elsewhere.

What was measured:
Type in all cases: cell-based
Conditions in all cases: U-87MG ATCC
[1] = Inhibition of RTK/PI3K/AKT/mTOR signaling in human U87 cells assessed as up regulation of SRC kinase signaling inhibitor 1 gene expression at cytotoxic IC50 measured after 48 hrs relative to control
[2] = Inhibition of RTK/PI3K/AKT/mTOR signaling in human U87 cells assessed as up regulation of CECR2, histone acetyl-lysine reader gene expression at cytotoxic IC50 measured after 48 hrs relative to control
[3] = Inhibition of RTK/PI3K/AKT/mTOR signaling in human U87 cells assessed as up regulation of DEAH-box helicase 37 gene expression at cytotoxic IC50 measured after 48 hrs relative to control
[4] = Inhibition of RTK/PI3K/AKT/mTOR signaling in human U87 cells assessed as down regulation of DPYSL3 gene expression at cytotoxic IC50 measured after 48 hrs relative to control
[5] = Inhibition of RTK/PI3K/AKT/mTOR signaling in human U87 cells assessed as down regulation of AAK1 gene expression at cytotoxic IC50 measured after 48 hrs relative to control
[6] = Inhibition of RTK/PI3K/AKT/mTOR signaling in human U87 cells assessed as down regulation of HNRNPL gene expression at cytotoxic IC50 measured after 48 hrs relative to control
[7] = Inhibition of RTK/PI3K/AKT/mTOR signaling in human U87 cells assessed as up regulation of mannose phosphate isomerase gene expression at cytotoxic IC50 measured after 48 hrs relative to control
[8] = Inhibition of RTK/PI3K/AKT/mTOR signaling in human U87 cells assessed as down regulation of UBC gene expression at cytotoxic IC50 measured after 48 hrs relative to control
[9] = Inhibition of RTK/PI3K/AKT/mTOR signaling in human U87 cells assessed as down regulation of RAD51AP1 gene expression at cytotoxic IC50 measured after 48 hrs relative to control
[10] = Inhibition of RTK/PI3K/AKT/mTOR signaling in human U87 cells assessed as down regulation of KHNYN gene expression at cytotoxic IC50 measured after 48 hrs relative to control
[11] = Inhibition of RTK/PI3K/AKT/mTOR signaling in human U87 cells assessed as up regulation of SLC5A1 gene expression at cytotoxic IC50 measured after 48 hrs relative to control
[12] = Inhibition of RTK/PI3K/AKT/mTOR signaling in human U87 cells assessed as down regulation of C3orf52 gene expression at cytotoxic IC50 measured after 48 hrs relative to control
[13] = Inhibition of RTK/PI3K/AKT/mTOR signaling in human U87 cells assessed as up regulation of leucine rich repeat and fibronectin type III domain containing 3 gene expression at cytotoxic IC50 measured after 48 hrs relative to control
[14] = Inhibition of RTK/PI3K/AKT/mTOR signaling in human U87 cells assessed as up regulation of prothymosin, alpha gene expression at cytotoxic IC50 measured after 48 hrs relative to control
[15] = Inhibition of RTK/PI3K/AKT/mTOR signaling in human U87 cells assessed as down regulation of OCRL gene expression at cytotoxic IC50 measured after 48 hrs relative to control
[16] = Inhibition of RTK/PI3K/AKT/mTOR signaling in human U87 cells assessed as down regulation of NOP58 gene expression at cytotoxic IC50 measured after 48 hrs relative to control
[17] = Inhibition of RTK/PI3K/AKT/mTOR signaling in human U87 cells assessed as down regulation of AP5B1 gene expression at cytotoxic IC50 measured after 48 hrs relative to control
[18] = Inhibition of RTK/PI3K/AKT/mTOR signaling in human U87 cells assessed as up regulation of PPFIA4 gene expression at cytotoxic IC50 measured after 48 hrs relative to control
[19] = Inhibition of RTK/PI3K/AKT/mTOR signaling in human U87 cells assessed as up regulation of ARHGAP23 gene expression at cytotoxic IC50 measured after 48 hrs relative to control
[20] = Inhibition of RTK/PI3K/AKT/mTOR signaling in human U87 cells assessed as down regulation of RBM42 gene expression at cytotoxic IC50 measured after 48 hrs relative to control
[21] = Inhibition of RTK/PI3K/AKT/mTOR signaling in human U87 cells assessed as down regulation of ARRDC3 gene expression at cytotoxic IC50 measured after 48 hrs relative to control
[22] = Inhibition of RTK/PI3K/AKT/mTOR signaling in human U87 cells assessed as down regulation of DCAF5 gene expression at cytotoxic IC50 measured after 48 hrs relative to control
[23] = Inhibition of RTK/PI3K/AKT/mTOR signaling in human U87 cells assessed as up regulation of dynein light chain Tctex-type 1 gene expression at cytotoxic IC50 measured after 48 hrs relative to control
[24] = Inhibition of RTK/PI3K/AKT/mTOR signaling in human U87 cells assessed as up regulation of RPL21 gene expression at cytotoxic IC50 measured after 48 hrs relative to control
[25] = Inhibition of RTK/PI3K/AKT/mTOR signaling in human U87 cells assessed as down regulation of ILKAP gene expression at cytotoxic IC50 measured after 48 hrs relative to control
[26] = Inhibition of RTK/PI3K/AKT/mTOR signaling in human U87 cells assessed as down regulation of GDE1 gene expression at cytotoxic IC50 measured after 48 hrs relative to control
[27] = Inhibition of RTK/PI3K/AKT/mTOR signaling in human U87 cells assessed as up regulation of TPI1 gene expression at cytotoxic IC50 measured after 48 hrs relative to control
[28] = Inhibition of RTK/PI3K/AKT/mTOR signaling in human U87 cells assessed as up regulation of KRR1, small subunit processome component homolog gene expression at cytotoxic IC50 measured after 48 hrs relative to control
[29] = Inhibition of RTK/PI3K/AKT/mTOR signaling in human U87 cells assessed as up regulation of biorientation of chromosomes in cell division 1 gene expression at cytotoxic IC50 measured after 48 hrs relative to control
[30] = Inhibition of RTK/PI3K/AKT/mTOR signaling in human U87 cells assessed as up regulation of RPN1 gene expression at cytotoxic IC50 measured after 48 hrs relative to control
[31] = Inhibition of RTK/PI3K/AKT/mTOR signaling in human U87 cells assessed as down regulation of BAP1 gene expression at cytotoxic IC50 measured after 48 hrs relative to control
[32] = Inhibition of RTK/PI3K/AKT/mTOR signaling in human U87 cells assessed as down regulation of NUDC gene expression at cytotoxic IC50 measured after 48 hrs relative to control

SMILES: CC(=O)C(=NNc1ccccc1C#N)C(C)=O
- log2FC [1]: 1.3
- log2FC [2]: 1.43
- log2FC [3]: 0.661
- log2FC [4]: -2.76
- log2FC [5]: -0.837
- log2FC [6]: -0.627
- log2FC [7]: 1.32
- log2FC [8]: -0.323
- log2FC [9]: -1.65
- log2FC [10]: -0.932
- log2FC [11]: 3.98
- log2FC [12]: -1.16
- log2FC [13]: 0.974
- log2FC [14]: 0.732
- log2FC [15]: -0.91
- log2FC [16]: -0.522
- log2FC [17]: -1.5
- log2FC [18]: 2.05
- log2FC [19]: 0.469
- log2FC [20]: -0.717
- log2FC [21]: -1.76
- log2FC [22]: -0.5
- log2FC [23]: 0.772
- log2FC [24]: 0.402
- log2FC [25]: -0.629
- log2FC [26]: -0.99
- log2FC [27]: 0.457
- log2FC [28]: 0.728
- log2FC [29]: 0.701
- log2FC [30]: 0.492
- log2FC [31]: -0.61
- log2FC [32]: -0.456
